PubChem BioAssay AID1053208 – Peter MacCallum Cancer Centre | 2014

Aim: 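Genes whose silencing cuts survival of bone tumour cells only with doxorubicin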 (primary screen)
Cells: mouse osteosarcoma cells, early-passage culture from an engineered mouse model of fibroblastic bone tumour
Reagents: siRNA pool against mouse genes, 40 nM
Timing: about 120 h (48 h before drug, then 72 h with drug)
Challenge: doxorubicin 100 nM for 72 h, roughly 30-40% inhibitory dose
Read-out: 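Luminescent ATP signal taken as viability with or without 100 nM doxorubicin for 72 h; mean of two wells set against non-targeting siRNA and turned into robust z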
Scale: viability z-score with doxorubicin: higher = more viable cells under doxorubicin; viability z-score without drug: higher = more viable cells with knock-down alone
Active means: 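a pool counts as active when its viability z-score with doxorubicin is -2 or below and its z-score without drug lies between -2 and 2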
The whole screen tested about 17,000 reagents; shown is a random part of them. Of all reagents, 788 (4.7%) are marked active. 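Calls rest on z-score classes alone; an extra cut-off of viability at most 70% of control was not applied to them.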 Not all columns of the deposit are shown.

After knock-down of Or7a37, the screen gave combined z-score class no change with or without drug; viability z-score with doxorubicin -0.67; viability z-score without drug -1.01; inactive.
Cygb showed combined z-score class no change with or without drug; viability z-score with doxorubicin 0; viability z-score without drug -1.52; inactive.
Cftr gave combined z-score class no change with or without drug; viability z-score with doxorubicin 0.22; viability z-score without drug 0.17; inactive.
Against Bcas2 the deposit lists combined z-score class no change with or without drug; viability z-score with doxorubicin 0.34; viability z-score without drug -1.35; inactive.
For Bcl6b, the values are combined z-score class no change with or without drug; viability z-score with doxorubicin 0; viability z-score without drug -0.17; inactive.
For Prdx3, the entry reads combined z-score class no change with or without drug; viability z-score with doxorubicin 1.46; viability z-score without drug 1.69; inactive.

Records above whose gene name starts with B or b:
Bcas2: combined z-score class = no change with or without drug; viability z-score with doxorubicin = 0.34; viability z-score without drug = -1.35; call = inactive
Bcl6b: combined z-score class = no change with or without drug; viability z-score with doxorubicin = 0; viability z-score without drug = -0.17; call = inactive

Further records follow:
Lnpk scored combined z-score class no change with or without drug; viability z-score with doxorubicin -0.22; viability z-score without drug -1.01; inactive.
With knock-down of Bap1, the screen gave combined z-score class no change with or without drug; viability z-score with doxorubicin 0.79; viability z-score without drug 0.17; inactive.
Knock-down of Il24 came out at: combined z-score class no change with or without drug; viability z-score with doxorubicin -0.22; viability z-score without drug -1.18; inactive.
Zfp292 scored combined z-score class no change with or without drug; viability z-score with doxorubicin 0.9; viability z-score without drug 0.67; inactive.
Mybl2 scored combined z-score class no change with or without drug; viability z-score with doxorubicin -0.67; viability z-score without drug -0.17; inactive.
For Wdr12, the values are combined z-score class no change with or without drug; viability z-score with doxorubicin -0.79; viability z-score without drug -1.85; inactive.
